Assay results reported in PubChem BioAssay AID248 (DTP/NCI, 2004).
The list does not hold the whole screen: it is rich in T/C values a quarter to a half above the control, in often repeated tests (any T/C) and in doses without a T/C. Other doses and runs of a compound stand elsewhere. T/C is the treated group as % of the vehicle group. Some entries give survivors of the animals treated and no T/C: the source holds a T/C of zero for them, seemingly a mark for toxic or unscored doses. Some survivor counts are full or nearly so, which does not show that the dose was tolerated: survival well below the control is almost never listed, so the zero probably covers shortened survival too. Survivors were counted at the toxicity check, usually on the fifth day, unless a day is given; later deaths do not show. Schedules are NCI's codes, read here as Q, the interval in days (D) or hours (H), X, the number of doses. Some structures stand for samples that the source files as different forms (salt, stereo form or complex); doses refer to the form tested. Some schedule codes hold Z or #, which are not explained here. For survival time, this PubChem deposit counts one and a half times the control or more as active, and values a quarter to a half above the control carry no call in these data; other NCI protocols may use other cut-offs. Some entries were tested several times; the values are given in rising order. Brackets with × say how often a value occurs here.

Tested on: L1210 leukemia ip in BDF1 mice, survival T/C
Experiment: NCI In Vivo Anticancer Drug Screen. Data for tumor model L1210 Leukemia (intraperitoneal) in B6D2F1 (BDF1) mice
Settings: higher T/C = longer survival
[1] = T/C endpoint: mean survival time, dose: 300.0 mg/kg/injection, schedule: Q01DX001 (ip), vehicle: saline
[2] = T/C endpoint: mean survival time, dose: 200.0 mg/kg/injection, schedule: Q04DX003 (ip), vehicle: Klucel (hydroxypropylcellulose) (HPC)
[3] = T/C endpoint: mean survival time, dose: 400.0 mg/kg/injection, schedule: Q01DX009 (ip), vehicle: Klucel (hydroxypropylcellulose) (HPC)
[4] = T/C endpoint: mean survival time, dose: 400.0 mg/kg/injection, schedule: Q01DX009 (ip), vehicle: saline with Tween-80
[5] = T/C endpoint: mean survival time, dose: 200.0 mg/kg/injection, schedule: Q01DX009 (ip), vehicle: saline
[6] = T/C endpoint: mean survival time, dose: 100.0 mg/kg/injection, schedule: Q01DX009 (ip), vehicle: carboxymethylcellulose (CMC)
[7] = T/C endpoint: mean survival time, dose: 400.0 mg/kg/injection, schedule: Q01DX001 (ip), vehicle: saline
[8] = T/C endpoint: mean survival time, dose: 100.0 mg/kg/injection, schedule: Q01DX009 (ip), vehicle: saline
[9] = T/C endpoint: mean survival time, dose: 200.0 mg/kg/injection, schedule: Q01DX001 (ip), vehicle: saline
[10] = T/C endpoint: mean survival time, dose: 400.0 mg/kg/injection, schedule: Q01DX009 (ip), vehicle: carboxymethylcellulose (CMC)
[11] = T/C endpoint: mean survival time, dose: 120.0 mg/kg/injection, schedule: Q01DX Z (ip), vehicle: methylcellulose (MC)
[12] = T/C endpoint: mean survival time, dose: 400.0 mg/kg/injection, schedule: Q04DX003 (ip), vehicle: saline with Tween-80

## CC[N+](C)(C)C1CCCCC1
T/C endpoint: mean survival time, dose: 150.0 mg/kg/injection, schedule: Q01DX001 (ip), vehicle: saline
  survivor count: 2 of 6
[1]
  survivor count: 0 of 6

## CC(=O)C1=CC(=O)c2ccccc2C1=O
T/C endpoint: mean survival time, dose: 100.0 mg/kg/injection, schedule: Q01DX001 (ip), vehicle: water
  survivor count: 0 of 6
T/C endpoint: mean survival time, dose: 200.0 mg/kg/injection, schedule: Q01DX001 (ip), vehicle: water
  survivor count: 0 of 6
T/C endpoint: mean survival time, dose: 400.0 mg/kg/injection, schedule: Q01DX001 (ip), vehicle: water
  survivor count: 0 of 6

## O=C1OC(=O)C2C3C=CC(C3=C(c3ccccc3)c3ccccc3)C12 (configuration not stated)
T/C endpoint: mean survival time, dose: 100.0 mg/kg/injection, schedule: Q04DX003 (ip), vehicle: saline with Tween-80
  survivor count: 6 of 6
[2]
  survivor count: 6 of 6
[3]
  survivor count: 5 of 6
[4]
  survivor count: 3 of 6

## ClC(CN1CCCCC1)C(Cl)c1ccccc1 (configuration not stated)
[5]
  survivor count: 5 of 6

## CCCCCCCC(C)NCCOC(=O)c1ccc(N)cc1 (configuration not stated)
T/C endpoint: mean survival time, dose: 300.0 mg/kg/injection, schedule: Q01DX001 (ip), vehicle: other
  survivor count: 0 of 6

## Cc1ccc2[nH]c(=S)n(-c3ccc(C)c(Cl)c3)c(=O)c2c1
[6]
  survivor count: 3 of 3

## O=[N+]([O-])c1ccc(C=Nc2cccc(C(F)(F)F)c2)cc1
[3]
  survivor count: 1 of 6

## CC1CCC(C)C1NC1=NCCO1 (configuration not stated)
T/C endpoint: mean survival time, dose: 100.0 mg/kg/injection, schedule: Q01DX009 (ip), vehicle: saline with Tween-80
  survivor count: 1 of 6
T/C endpoint: mean survival time, dose: 200.0 mg/kg/injection, schedule: Q01DX009 (ip), vehicle: saline with Tween-80
  survivor count: 0 of 6
[4]
  survivor count: 0 of 6

## NC(N)=N/N=C\c1ccccc1/C=N/N=C(N)N
T/C endpoint: mean survival time, dose: 60.0 mg/kg/injection, schedule: Q01DX Z (ip), vehicle: saline
  survivor count: 1 of 6
T/C endpoint: mean survival time, dose: 120.0 mg/kg/injection, schedule: Q01DX Z (ip), vehicle: saline
  survivor count: 0 of 6

## O=[N+]([O-])c1ccc2c(N=Nc3c(O)ccc4ccccc34)c(O)cc(S(=O)(=O)O)c2c1
[7]
  survivor count: 3 of 6

## CCNC(=O)N(Cc1ccccc1)Cc1ccccc1
[4]
  survivor count: 1 of 6

## Cc1ccc2scc3c4ccccc4nc-3c2c1
[8]
  survivor count: 2 of 6

## CCOC(=O)CNC(=O)C(CSSCC(NC(=O)OCc1ccccc1)C(=O)NCC(=O)OCC)NC(=O)OCc1ccccc1 (configuration not stated)
[2]
  survivor count: 6 of 6
T/C endpoint: mean survival time, dose: 400.0 mg/kg/injection, schedule: Q04DX003 (ip), vehicle: Klucel (hydroxypropylcellulose) (HPC)
  survivor count: 6 of 6

## N=c1ccccn1CC(Cl)COc1ccccc1 (configuration not stated)
[9]
  survivor count: 1 of 4
[7]
  survivor count: 0 of 4

## CC/C(=C(/CC)c1ccc(O)cc1)c1ccc(O)cc1
[10]
  survivor count: 9 of 10
T/C endpoint: median survival time, dose: 128.0 mg/kg/injection, schedule: Q03HX008 (ip), vehicle: saline with Tween-80
  survivor count: 0 of 10
T/C endpoint: median survival time, dose: 128.0 mg/kg/injection, schedule: Q03HX016 (ip), vehicle: saline with Tween-80
  survivor count: 0 of 10
T/C endpoint: median survival time, dose: 128.0 mg/kg/injection, schedule: Q03HX024 (ip), vehicle: saline with Tween-80
  survivor count: 0 of 10
T/C endpoint: median survival time, dose: 256.0 mg/kg/injection, schedule: Q01DX009 (ip), vehicle: saline with Tween-80
  survivor count: 7 of 10
T/C endpoint: median survival time, dose: 256.0 mg/kg/injection, schedule: Q03HX008 (ip), vehicle: saline with Tween-80
  survivor count: 0 of 10
T/C endpoint: median survival time, dose: 256.0 mg/kg/injection, schedule: Q03HX016 (ip), vehicle: saline with Tween-80
  survivor count: 0 of 10
T/C endpoint: median survival time, dose: 512.0 mg/kg/injection, schedule: Q01DX009 (ip), vehicle: saline with Tween-80
  survivor count: 0 of 10
T/C endpoint: median survival time, dose: 512.0 mg/kg/injection, schedule: Q04DX003 (ip), vehicle: saline with Tween-80
  survivor count: 3 of 10
T/C endpoint: median survival time, dose: 1024.0 mg/kg/injection, schedule: Q01DX001 (ip), vehicle: saline with Tween-80
  survivor count: 2 of 10
T/C endpoint: median survival time, dose: 1024.0 mg/kg/injection, schedule: Q04DX003 (ip), vehicle: saline with Tween-80
  survivor count: 5 of 10
T/C endpoint: median survival time, dose: 2048.0 mg/kg/injection, schedule: Q01DX001 (ip), vehicle: saline with Tween-80
  survivor count: 1 of 10

## Cn1c[n+](C)ccc1=O
T/C endpoint: mean survival time, dose: 400.0 mg/kg/injection, schedule: Q01DX009 (ip), vehicle: water
  survivor count: 2 of 6

## ClCC[n+]1ccccc1
[1]
  survivor count: 0 of 6

## O=C(/C=C\c1ccccc1)N1CCc2ccccc2C1
T/C endpoint: mean survival time, dose: 150.0 mg/kg/injection, schedule: Q04DX003 (ip), vehicle: saline
  survivor count: 6 of 6

## CN(C)CC/C(=N\N=C(N)N)c1ccccc1
[11]
  survivor count: 1 of 6
T/C endpoint: mean survival time, dose: 120.0 mg/kg/injection, schedule: Q01DX Z (oral), vehicle: methylcellulose (MC)
  survivor count: 3 of 6
T/C endpoint: mean survival time, dose: 240.0 mg/kg/injection, schedule: Q01DX Z (oral), vehicle: methylcellulose (MC)
  survivor count: 3 of 6

## C=C(C(=O)c1ccccc1)C(O)c1ccccc1 (configuration not stated)
[4]
  survivor count: 3 of 6

## Oc1ccccc1CNCc1ccccc1O
[1]
  survivor count: 0 of 6

## Cc1cnc2c(=N)n(C(=O)C(F)(F)F)n(C)c2n1
[3]
  survivor count: 3 of 6

## Cc1nc2cccc3ccc4cc5ccccc5c1c4c32
[12]
  survivor count: 6 of 6

## CN=C(NC)N/N=C(C)\C=N\NC(=NC)NC
T/C endpoint: mean survival time, dose: 15.0 mg/kg/injection, schedule: Q01DX Z (ip), vehicle: methylcellulose (MC)
  T/C: 136 % of control
T/C endpoint: mean survival time, dose: 60.0 mg/kg/injection, schedule: Q01DX Z (ip), vehicle: methylcellulose (MC)
  survivor count: 3 of 6
[11]
  survivor count: 1 of 6
T/C endpoint: mean survival time, dose: 480.0 mg/kg/injection, schedule: Q01DX Z (ip), vehicle: saline
  survivor count: 3 of 6

## CC1C(c2ccccc2)OCN1CN1C(=O)C=CC1=O (configuration not stated) (tested in a mixture with another compound)
T/C endpoint: mean survival time, dose: 200.0 mg/kg/injection, schedule: Q04DX003 (ip), vehicle: saline with Tween-80
  survivor count: 6 of 6
[12]
  survivor count: 6 of 6

## CCOC(=O)CNC(=O)Oc1ccc2c(C)cc(=O)oc2c1
T/C endpoint: mean survival time, dose: 100.0 mg/kg/injection, schedule: Q01DX001 (ip), vehicle: carboxymethylcellulose (CMC)
  T/C: 95, 98, 100, 101 % of control
[6]
  survivor count: 6 of 6
T/C endpoint: mean survival time, dose: 200.0 mg/kg/injection, schedule: Q01DX001 (ip), vehicle: carboxymethylcellulose (CMC)
  T/C: 93, 95, 96, 101 % of control
T/C endpoint: mean survival time, dose: 400.0 mg/kg/injection, schedule: Q01DX001 (ip), vehicle: carboxymethylcellulose (CMC)
  T/C: 97, 103, 104 % of control (2×)
[10]
  survivor count: 3 of 6

## COC1OC(COC(=O)c2ccc([N+](=O)[O-])cc2)C(OC(=O)c2ccc([N+](=O)[O-])cc2)C1OCc1ccccc1 (configuration not stated)
T/C endpoint: mean survival time, dose: 75.0 mg/kg/injection, schedule: Q01DX001 (ip), vehicle: other
  survivor count: 6 of 6
T/C endpoint: mean survival time, dose: 150.0 mg/kg/injection, schedule: Q01DX001 (ip), vehicle: other
  survivor count: 6 of 6

## CC1=CC(=O)C=CC1(C)C(Cl)(Cl)Cl (configuration not stated)
[3]
  survivor count: 0 of 5

## CCOC(=O)c1[nH]c2ccsc2c1CN1CCCCC1
T/C endpoint: mean survival time, dose: 200.0 mg/kg/injection, schedule: Q01DX001 (ip), vehicle: Klucel (hydroxypropylcellulose) (HPC)
  survivor count: 2 of 6

## C(=Nc1ccncc1)c1c[nH]c2ccccc12
T/C endpoint: mean survival time, dose: 100.0 mg/kg/injection, schedule: Q01DX009 (ip), vehicle: Klucel (hydroxypropylcellulose) (HPC)
  survivor count: 0 of 6
T/C endpoint: mean survival time, dose: 200.0 mg/kg/injection, schedule: Q01DX009 (ip), vehicle: Klucel (hydroxypropylcellulose) (HPC)
  survivor count: 0 of 6
[3]
  survivor count: 0 of 6

## CC(=O)Nc1ccc(-c2cnc3ccccc3c2)cc1
T/C endpoint: mean survival time, dose: 100.0 mg/kg/injection, schedule: Q01DX001 (ip), vehicle: saline
  survivor count: 2 of 6
[9]
  survivor count: 0 of 6
[7]
  survivor count: 0 of 6

## CCN(CC)Cc1cc(Nc2cc(C)nc3ccc(N(C)C)cc23)ccc1O
[8]
  survivor count: 6 of 6
[5]
  survivor count: 2 of 6
T/C endpoint: mean survival time, dose: 400.0 mg/kg/injection, schedule: Q01DX009 (ip), vehicle: saline
  survivor count: 0 of 6

## COc1ccc([N+](=O)[O-])cc1NC(=O)Nc1cc(C)on1
T/C endpoint: mean survival time, dose: 400.0 mg/kg/injection, schedule: Q04DX002 (ip), vehicle: Klucel (hydroxypropylcellulose) (HPC)
  survivor count: 3 of 3
